Measurements reported in US20250136719A1 (TECHNION RESEARCH AND DEVELOPMENT FOUNDATION, published 2025).
No constants are given. Whether binding was seen depends on the method and setting. Some binding calls cover weakened binding; strength is not graded here.

T1: latent 65 kDa heparanase (Hpa65) (UniProt Q9Y251)
T1 sequence (looked up): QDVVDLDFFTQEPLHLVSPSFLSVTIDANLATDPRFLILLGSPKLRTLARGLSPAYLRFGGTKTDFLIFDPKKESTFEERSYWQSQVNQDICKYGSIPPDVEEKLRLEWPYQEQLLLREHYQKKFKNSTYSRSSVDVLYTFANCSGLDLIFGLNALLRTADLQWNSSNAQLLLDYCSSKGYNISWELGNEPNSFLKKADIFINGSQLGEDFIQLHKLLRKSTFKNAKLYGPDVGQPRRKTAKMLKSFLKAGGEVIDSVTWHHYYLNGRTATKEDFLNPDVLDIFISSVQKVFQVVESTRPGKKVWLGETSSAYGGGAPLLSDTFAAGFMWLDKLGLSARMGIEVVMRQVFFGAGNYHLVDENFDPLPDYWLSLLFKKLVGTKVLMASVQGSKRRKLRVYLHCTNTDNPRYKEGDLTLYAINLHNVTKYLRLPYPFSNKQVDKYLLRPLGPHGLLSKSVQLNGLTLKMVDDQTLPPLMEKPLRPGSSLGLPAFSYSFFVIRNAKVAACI

T2: purified heparanase (HPSE) (UniProt Q9Y251)
T2 sequence (looked up) 1: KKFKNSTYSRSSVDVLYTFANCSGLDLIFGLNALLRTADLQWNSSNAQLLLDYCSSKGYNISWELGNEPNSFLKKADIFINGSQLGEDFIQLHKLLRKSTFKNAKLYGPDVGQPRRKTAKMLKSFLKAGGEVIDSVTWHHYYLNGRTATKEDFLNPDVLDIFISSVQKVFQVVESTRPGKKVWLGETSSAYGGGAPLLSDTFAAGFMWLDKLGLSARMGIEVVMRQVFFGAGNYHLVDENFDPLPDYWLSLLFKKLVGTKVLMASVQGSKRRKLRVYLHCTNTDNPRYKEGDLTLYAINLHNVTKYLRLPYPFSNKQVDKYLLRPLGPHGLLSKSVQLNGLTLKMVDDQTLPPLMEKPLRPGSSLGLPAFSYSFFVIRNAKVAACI
T2 sequence (looked up) 2: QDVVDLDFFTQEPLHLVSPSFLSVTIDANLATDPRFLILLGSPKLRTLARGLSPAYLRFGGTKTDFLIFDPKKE


Legend:
[1] = target: T1, latent 65 kDa heparanase (Hpa65); test: ELISA on immobilized latent heparanase (FIG. 2A)
[2] = target: T2, purified heparanase (HPSE); test: X-ray crystallography of the complex
[3] = target: T2, purified heparanase (HPSE); test: size exclusion chromatography of the Fab:HPSE mixture

Row | binding [1] | binding [2] | binding [3] | Binder
1 | binds | – | – | mAb A54 (antibody, IgG1, V domains shown, Murine monoclonal antibody, IgG1-Kappa; Purified on protein G from hybridoma, also expressed in 293F cells; also called A54 mAb; A54 antibody) VH: QVQLQQSGAELAKPGASVRMSCKASGYTFTNYWMHWVKQRPGQGLEWIGYINPTTGYTEYNQKFKDKATLTADKSSSTAYMQLSSLTSEDSAVYYCARGGAGYDYDEDYAMDYWGQGTSVTVSS VL: DIVLTQSPASLAVSLGQRATISCRASESVEYFGTSYMNWYQQKPGQPPKLLIYLASILESGIPARFSGSGSGTDFTLNIHPVEEEDAATYYCQQSNEDPYTFGGGTKLEIK
2 | – | binds | binds | A54 Fab (Fab, V domains shown) VH: QVQLQQSGAELAKPGASVRMSCKASGYTFTNYWMHWVKQRPGQGLEWIGYINPTTGYTEYNQKFKDKATLTADKSSSTAYMQLSSLTSEDSAVYYCARGGAGYDYDEDYAMDYWGQGTSVTVSS VL: DIVLTQSPASLAVSLGQRATISCRASESVEYFGTSYMNWYQQKPGQPPKLLIYLASILESGIPARFSGSGSGTDFTLNIHPVEEEDAATYYCQQSNEDPYTFGGGTKLEIK
